Experimental data from the supplement of paper PMC10849652.
This is one part of the list.

Sequences of proteins named here, by UniProt entry; tags and fusion partners are left off. A change or cut given only in a name is not applied to a line headed by its entry.
UniProt Q2TAA5: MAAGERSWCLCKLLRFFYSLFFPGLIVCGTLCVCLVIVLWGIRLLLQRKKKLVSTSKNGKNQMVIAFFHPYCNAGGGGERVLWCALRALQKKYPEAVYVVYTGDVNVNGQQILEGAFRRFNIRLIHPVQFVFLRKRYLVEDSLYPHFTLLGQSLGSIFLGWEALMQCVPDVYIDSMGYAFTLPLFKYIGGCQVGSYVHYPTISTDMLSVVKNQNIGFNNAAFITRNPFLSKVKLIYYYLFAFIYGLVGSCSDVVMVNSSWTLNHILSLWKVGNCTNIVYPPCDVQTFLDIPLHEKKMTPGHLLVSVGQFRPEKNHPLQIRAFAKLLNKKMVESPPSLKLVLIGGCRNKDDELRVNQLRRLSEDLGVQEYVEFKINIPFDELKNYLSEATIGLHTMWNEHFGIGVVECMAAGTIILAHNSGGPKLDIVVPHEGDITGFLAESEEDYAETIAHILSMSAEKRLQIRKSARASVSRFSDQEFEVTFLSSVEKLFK
UniProt Q8WV93: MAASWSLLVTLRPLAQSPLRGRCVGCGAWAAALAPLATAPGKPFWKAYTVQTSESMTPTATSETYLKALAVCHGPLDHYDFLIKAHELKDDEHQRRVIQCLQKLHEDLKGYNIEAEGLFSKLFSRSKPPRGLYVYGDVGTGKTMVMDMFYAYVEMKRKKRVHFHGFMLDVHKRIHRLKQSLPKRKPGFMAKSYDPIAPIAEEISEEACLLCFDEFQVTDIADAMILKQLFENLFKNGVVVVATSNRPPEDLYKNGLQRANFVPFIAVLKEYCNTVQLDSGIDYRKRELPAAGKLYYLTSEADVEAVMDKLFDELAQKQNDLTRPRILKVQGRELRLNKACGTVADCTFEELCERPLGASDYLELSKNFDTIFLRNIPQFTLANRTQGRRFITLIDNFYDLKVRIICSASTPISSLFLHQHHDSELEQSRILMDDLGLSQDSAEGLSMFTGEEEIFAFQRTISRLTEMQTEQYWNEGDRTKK
UniProt Q99943: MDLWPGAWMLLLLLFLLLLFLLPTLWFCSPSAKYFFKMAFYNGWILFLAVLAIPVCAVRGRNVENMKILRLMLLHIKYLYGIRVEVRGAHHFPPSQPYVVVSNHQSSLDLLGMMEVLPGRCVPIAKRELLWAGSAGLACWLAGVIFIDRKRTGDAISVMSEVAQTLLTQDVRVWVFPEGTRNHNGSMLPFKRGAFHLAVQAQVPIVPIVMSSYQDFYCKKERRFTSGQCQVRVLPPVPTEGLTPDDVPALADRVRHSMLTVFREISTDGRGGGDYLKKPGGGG
UniProt Q16186: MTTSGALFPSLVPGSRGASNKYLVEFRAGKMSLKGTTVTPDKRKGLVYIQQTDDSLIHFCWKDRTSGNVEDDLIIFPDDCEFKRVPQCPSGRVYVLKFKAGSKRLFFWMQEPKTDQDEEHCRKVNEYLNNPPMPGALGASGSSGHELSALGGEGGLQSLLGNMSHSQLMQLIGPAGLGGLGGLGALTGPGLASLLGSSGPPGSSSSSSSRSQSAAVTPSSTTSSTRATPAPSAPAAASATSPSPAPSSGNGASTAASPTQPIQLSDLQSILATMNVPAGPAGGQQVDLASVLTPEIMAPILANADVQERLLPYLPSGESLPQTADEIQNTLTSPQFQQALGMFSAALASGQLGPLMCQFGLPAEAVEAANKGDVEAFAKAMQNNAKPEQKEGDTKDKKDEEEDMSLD
UniProt P30837: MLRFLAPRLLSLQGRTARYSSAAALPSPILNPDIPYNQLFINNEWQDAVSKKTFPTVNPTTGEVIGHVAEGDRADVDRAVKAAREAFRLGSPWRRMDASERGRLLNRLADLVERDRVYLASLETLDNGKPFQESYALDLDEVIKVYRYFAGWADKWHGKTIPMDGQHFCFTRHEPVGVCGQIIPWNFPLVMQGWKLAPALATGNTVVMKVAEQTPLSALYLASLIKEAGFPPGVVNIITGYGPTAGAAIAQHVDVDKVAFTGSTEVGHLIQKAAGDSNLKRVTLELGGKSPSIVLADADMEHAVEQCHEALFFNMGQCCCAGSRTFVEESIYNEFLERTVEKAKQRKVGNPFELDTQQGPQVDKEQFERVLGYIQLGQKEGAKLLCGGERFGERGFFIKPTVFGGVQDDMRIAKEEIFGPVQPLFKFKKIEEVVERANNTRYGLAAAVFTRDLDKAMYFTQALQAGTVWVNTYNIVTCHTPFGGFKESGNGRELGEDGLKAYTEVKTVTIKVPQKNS
UniProt P42330: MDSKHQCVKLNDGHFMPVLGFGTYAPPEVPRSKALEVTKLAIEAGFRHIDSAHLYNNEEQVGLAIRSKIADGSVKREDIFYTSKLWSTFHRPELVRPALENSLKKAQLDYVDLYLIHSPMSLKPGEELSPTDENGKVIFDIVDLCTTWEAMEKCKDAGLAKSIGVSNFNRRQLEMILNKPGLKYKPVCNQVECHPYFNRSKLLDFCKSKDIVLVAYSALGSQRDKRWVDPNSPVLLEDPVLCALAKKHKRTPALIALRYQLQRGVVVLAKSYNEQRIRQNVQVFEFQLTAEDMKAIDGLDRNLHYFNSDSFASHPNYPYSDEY
UniProt P31749: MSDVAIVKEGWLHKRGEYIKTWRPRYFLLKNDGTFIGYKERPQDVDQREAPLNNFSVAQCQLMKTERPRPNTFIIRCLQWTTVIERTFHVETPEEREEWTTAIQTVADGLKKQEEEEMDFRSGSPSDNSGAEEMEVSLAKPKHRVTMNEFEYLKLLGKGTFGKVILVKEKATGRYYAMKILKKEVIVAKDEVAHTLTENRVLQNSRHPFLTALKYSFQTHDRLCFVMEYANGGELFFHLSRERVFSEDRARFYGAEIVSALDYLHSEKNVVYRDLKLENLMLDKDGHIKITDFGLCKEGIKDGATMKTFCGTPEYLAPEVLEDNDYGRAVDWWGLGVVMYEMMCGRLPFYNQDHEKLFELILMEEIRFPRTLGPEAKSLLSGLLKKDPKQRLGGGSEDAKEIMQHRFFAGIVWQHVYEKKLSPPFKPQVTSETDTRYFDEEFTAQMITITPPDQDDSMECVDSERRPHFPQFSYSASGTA
UniProt Q92685: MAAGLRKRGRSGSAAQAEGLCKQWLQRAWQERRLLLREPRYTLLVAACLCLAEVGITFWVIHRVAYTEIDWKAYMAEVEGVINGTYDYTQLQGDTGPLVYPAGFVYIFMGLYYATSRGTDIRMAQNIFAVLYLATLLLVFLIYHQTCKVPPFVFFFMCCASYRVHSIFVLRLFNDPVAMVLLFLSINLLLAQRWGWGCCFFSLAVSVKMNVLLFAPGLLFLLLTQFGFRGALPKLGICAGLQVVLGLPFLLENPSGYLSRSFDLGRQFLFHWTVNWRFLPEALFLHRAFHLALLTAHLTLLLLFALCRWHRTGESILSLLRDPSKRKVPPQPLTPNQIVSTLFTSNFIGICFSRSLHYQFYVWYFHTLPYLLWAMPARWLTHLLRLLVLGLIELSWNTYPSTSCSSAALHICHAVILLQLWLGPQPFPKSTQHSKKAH
UniProt Q9BRQ8: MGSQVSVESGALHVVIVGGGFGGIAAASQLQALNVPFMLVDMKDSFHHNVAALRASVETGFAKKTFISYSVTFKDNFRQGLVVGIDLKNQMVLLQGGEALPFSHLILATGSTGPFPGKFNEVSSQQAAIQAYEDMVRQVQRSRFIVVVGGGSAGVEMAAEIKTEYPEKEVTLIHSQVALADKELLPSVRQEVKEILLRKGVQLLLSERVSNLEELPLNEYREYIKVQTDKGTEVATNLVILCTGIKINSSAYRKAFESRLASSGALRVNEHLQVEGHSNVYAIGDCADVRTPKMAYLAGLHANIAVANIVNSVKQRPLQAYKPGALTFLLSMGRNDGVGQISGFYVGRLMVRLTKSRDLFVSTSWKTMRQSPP
UniProt Q9Y673: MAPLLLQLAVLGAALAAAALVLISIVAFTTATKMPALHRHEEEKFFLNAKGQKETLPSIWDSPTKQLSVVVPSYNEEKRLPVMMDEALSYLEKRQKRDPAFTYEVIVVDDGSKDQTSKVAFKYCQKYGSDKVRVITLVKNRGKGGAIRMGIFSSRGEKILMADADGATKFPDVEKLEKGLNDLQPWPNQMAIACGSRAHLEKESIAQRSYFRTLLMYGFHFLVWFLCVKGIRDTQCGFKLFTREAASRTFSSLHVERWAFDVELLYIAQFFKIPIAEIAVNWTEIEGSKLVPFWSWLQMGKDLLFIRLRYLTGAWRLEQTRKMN
UniProt P31751: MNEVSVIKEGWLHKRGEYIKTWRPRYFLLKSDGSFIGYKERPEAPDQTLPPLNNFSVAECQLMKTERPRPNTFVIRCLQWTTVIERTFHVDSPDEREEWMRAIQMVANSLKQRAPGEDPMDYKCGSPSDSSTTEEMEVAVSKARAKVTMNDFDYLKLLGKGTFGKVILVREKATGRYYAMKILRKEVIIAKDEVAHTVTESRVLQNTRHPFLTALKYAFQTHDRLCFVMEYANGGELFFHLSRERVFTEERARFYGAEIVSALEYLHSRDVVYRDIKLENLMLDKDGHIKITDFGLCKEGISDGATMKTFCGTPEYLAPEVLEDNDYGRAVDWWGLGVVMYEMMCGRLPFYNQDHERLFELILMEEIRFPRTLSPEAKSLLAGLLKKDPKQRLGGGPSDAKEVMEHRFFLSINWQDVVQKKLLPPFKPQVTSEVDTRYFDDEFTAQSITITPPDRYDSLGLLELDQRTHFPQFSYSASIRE
UniProt O95433, whole entry, looked up: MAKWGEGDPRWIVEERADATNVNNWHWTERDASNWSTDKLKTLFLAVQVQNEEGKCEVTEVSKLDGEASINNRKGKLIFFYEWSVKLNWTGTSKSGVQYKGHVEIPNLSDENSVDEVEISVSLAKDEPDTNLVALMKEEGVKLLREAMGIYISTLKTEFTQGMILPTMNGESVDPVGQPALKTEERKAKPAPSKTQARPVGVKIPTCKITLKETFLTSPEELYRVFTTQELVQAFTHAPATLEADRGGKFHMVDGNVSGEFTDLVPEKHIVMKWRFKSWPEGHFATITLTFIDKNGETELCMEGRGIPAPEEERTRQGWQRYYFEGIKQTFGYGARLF
UniProt P54886: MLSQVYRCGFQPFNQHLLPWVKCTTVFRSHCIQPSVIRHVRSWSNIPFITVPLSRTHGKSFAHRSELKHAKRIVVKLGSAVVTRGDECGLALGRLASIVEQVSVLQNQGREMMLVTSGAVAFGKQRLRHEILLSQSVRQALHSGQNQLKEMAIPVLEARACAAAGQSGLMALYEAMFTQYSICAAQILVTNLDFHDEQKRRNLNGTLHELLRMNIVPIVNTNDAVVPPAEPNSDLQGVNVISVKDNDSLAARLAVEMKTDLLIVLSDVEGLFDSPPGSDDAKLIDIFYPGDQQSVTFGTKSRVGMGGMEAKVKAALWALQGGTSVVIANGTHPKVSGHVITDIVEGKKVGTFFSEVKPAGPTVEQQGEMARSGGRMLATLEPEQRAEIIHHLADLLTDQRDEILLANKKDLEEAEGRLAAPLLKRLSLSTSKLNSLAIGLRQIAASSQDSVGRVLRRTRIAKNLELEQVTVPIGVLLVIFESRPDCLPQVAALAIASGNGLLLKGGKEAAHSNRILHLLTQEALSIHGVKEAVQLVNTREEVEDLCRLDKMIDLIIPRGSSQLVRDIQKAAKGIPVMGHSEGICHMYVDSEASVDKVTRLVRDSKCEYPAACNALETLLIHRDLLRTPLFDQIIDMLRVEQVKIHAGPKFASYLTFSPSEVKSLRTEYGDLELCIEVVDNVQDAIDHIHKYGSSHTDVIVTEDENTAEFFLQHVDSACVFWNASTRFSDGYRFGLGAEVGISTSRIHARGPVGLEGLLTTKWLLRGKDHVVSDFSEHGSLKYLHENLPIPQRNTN

How the values were obtained:
Assay in all cases: log2 fold change, soluble protein after heating vs DMSO (PISA); higher = thermal stabilisation; K562 cells, 10 uM, 30 min; active = over 0.2 and 3.5 SD of the protein, either way, in both replicates (recomputed)
[1] = compound: CN1CCN(CCOc2cc(OC3CCOCC3)c3c(Nc4c(Cl)ccc5c4OCO5)ncnc3c2)CC1 [saracatinib]
How it was run: (§1)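 Aliquots of K562 cells (2×10^6 cells/mL) treated with 10 μM compound for 30 min were heated for 3 min over 48°C-58°C. After pooling and extraction in PBS with 0.5% NP-40 at 4°C, soluble protein from a 21,000xg, 90 min spin was quantified by TMTpro 16plex LC-MS/MS with channel sums equalised. Thermal stability is expressed against control samples, from duplicates, as a log2 fold change.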

[2] = compound: CN1CCN(c2nc(C3=C(c4c[nH]c5ccccc45)C(=O)NC3=O)c3ccccc3n2)CC1 [sotrastaurin]
How it was run: as §1

[3] = compound: CN1CCc2c(c3ccccc3n2Cc2ccc(C(=O)NO)cc2)C1 [Tubastatin A]
How it was run: as §1

[4] = compound: CNC(=O)C1=CC=CC=C1NC2=NC(=NC=C2Cl)NC3=C(C=C(C=C3)N4CCOCC4)OC
How it was run: as §1

[5] = compound: CNC(=O)c1ccc(Nc2ncc(C(F)(F)F)c(NCc3nccnc3N(C)S(C)(=O)=O)n2)cc1 [defactinib]
How it was run: as §1

[6] = compound: CNCc1ccc(-c2[nH]c3cc(F)cc4c3c2CCNC4=O)cc1 [rucaparib]
How it was run: as §1

[7] = compound: CNc1nc(-c2ccc3c(N)n[nH]c3c2)cc(N2C[C@@H](C(=O)NC3CCCCC3)CC[C@H]2C)n1
How it was run: as §1

[8] = compound: COC(=O)N[C@@H](C)CNc1nccc(-c2cn(C(C)C)nc2-c2cc(Cl)cc(NS(C)(=O)=O)c2F)n1 [encorafenib]
How it was run: as §1

[9] = compound: COC(=O)[C@H](CCSC)NC(=O)C1=C(C=C(C=C1)NC[C@H](CS)N)C2=CC=CC=C2
How it was run: as §1

[10] = compound: COC1=CC=C(C=C1)CN2C=CC3=C2C=C(C=C3)C(=O)NO
How it was run: as §1

[11] = compound: CON(C)C(=O)N1N=C(c2cc(F)ccc2F)S[C@@]1(CCCN)c1ccccc1 [filanesib]
How it was run: as §1

[12] = compound: CO[C@H]1C[C@@H]2CC[C@@H](C)[C@@](O)(O2)C(=O)C(=O)N2CCCC[C@H]2C(=O)O[C@H]([C@H](C)C[C@@H]2CC[C@H](n3cnnn3)[C@H](OC)C2)CC(=O)[C@H](C)/C=C(\C)[C@@H](O)[C@@H](OC)C(=O)[C@H](C)C[C@H](C)/C=C/C=C/C=C/1C [zotarolimus]
How it was run: as §1

[13] = compound: COc1cc(C(=O)O)ccc1NC(=O)[C@@H]1N[C@@H](CC(C)(C)C)[C@](C#N)(c2ccc(Cl)cc2F)[C@H]1c1cccc(Cl)c1F [idasanutlin]
How it was run: as §1

[14] = compound: COc1cc(Nc2ncc3c(n2)-c2ccc(Cl)cc2C(c2c(F)cccc2OC)=NC3)ccc1C(=O)O [alisertib]
How it was run: as §1

[15] = compound: COc1cc2nc(-c3cc(F)ccc3O)nc(N[C@@H]3CNC[C@H]3C(C)(C)O)c2cc1OC
How it was run: as §1

[16] = compound: COc1cc2ncnc(Nc3ccc(F)c(Cl)c3)c2cc1OCCCN1CCOCC1 [gefitinib]
How it was run: as §1

[17] = compound: COc1cccc2cc(-c3nc([C@H]4CC[C@H](C(=O)O)CC4)n4ncnc(N)c34)[nH]c12
How it was run: as §1

[18] = compound: CS(=O)(=O)CCNCc1ccc(-c2ccc3ncnc(Nc4ccc(OCc5cccc(F)c5)c(Cl)c4)c3c2)o1 [lapatinib]
How it was run: as §1

[19] = compound: CS(=O)(=O)N1CCN(Cc2cc3nc(-c4cccc5[nH]ncc45)nc(N4CCOCC4)c3s2)CC1 [pictilisib]
How it was run: as §1

[20] = compound: CN1CC[C@H](c2c(O)cc(O)c3c(=O)cc(-c4ccccc4Cl)oc23)[C@H](O)C1 [alvocidib]
How it was run: as §1

Measured: log2 fold change

ALG11 (UniProt Q2TAA5)
inactive: [1] 0.047 | [2] 0.013 | [3] -0.023 | [4] -0.018 | [5] -0.021 | [6] -0.015 | [7] -0.021 | [8] 0.073 | [9] -0.082 | [10] -0.018 | [11] -0.038 | [12] 0.036 | [13] -0.051 | [14] -0.075 | [15] -0.003 | [16] 0.206 | [17] 0.026 | [18] 0.005 | [19] 0.032

AGRN (UniProt O00468)
inactive: [1] 0.062 | [2] 0.065 | [3] -0.01 | [4] 0 | [5] -0.119 | [6] 0.032 | [7] -0.164 | [8] 0.034 | [9] 0.014 | [10] -0.068 | [11] 0.014 | [12] -0.001 | [13] -0.005 | [14] -0.043 | [15] -0.071 | [16] 0.118 | [17] 0.037 | [18] 0.018 | [19] 0.055

AFG1L (UniProt Q8WV93)
inactive: [1] -0.038 | [2] -0.075 | [3] -0.204 | [4] -0.011 | [5] -0.131 | [6] -0.057 | [7] 0.002 | [8] 0.025 | [9] 0.088 | [10] -0.17 | [11] -0.239 | [12] 0.018 | [13] 0.016 | [14] -0.065 | [15] -0.18 | [16] -0.012 | [17] 0.107 | [18] 0.041

AGO1 (UniProt Q9UL18)
inactive: [1] -0.066 | [2] -0.307 | [3] -0.164 | [4] -0.039 | [5] -0.03 | [6] 0.16 | [7] -0.085 | [8] 0.086 | [9] -0.036 | [10] -0.107 | [11] -0.015 | [12] -0.069 | [13] 0.009 | [14] 0.05 | [15] -0.031 | [16] -0.119 | [17] -0.029 | [18] 0.061 | [19] -0.002

AGPAT1 (UniProt Q99943)
inactive: [1] -0.009 | [2] 0.045 | [3] -0.004 | [4] 0.074 | [5] -0.079 | [6] -0.109 | [7] -0.011 | [8] 0.039 | [9] 0.003 | [10] -0.004 | [11] 0.001 | [12] -0.048 | [13] -0.059 | [14] -0.081 | [15] 0.176 | [16] 0.028 | [17] 0.021 | [18] 0.074 | [19] 0.017

ADRM1 (UniProt Q16186)
inactive: [1] -0.086 | [2] -0.091 | [3] 0.18 | [4] -0.067 | [5] 0.087 | [6] -0.022 | [7] 0.111 | [8] 0.108 | [9] 0.017 | [10] 0.088 | [11] 0.008 | [12] 0.057 | [13] -0.073 | [14] -0.031 | [15] -0.029 | [16] -0.055 | [17] -0.045 | [18] 0.022 | [19] -0.013

ALDH1B1 (UniProt P30837)
inactive: [1] -0.015 | [2] 0.001 | [3] 0.014 | [4] 0.002 | [5] -0.055 | [6] -0.015 | [7] 0.062 | [8] 0.013 | [9] -0.042 | [10] 0.051 | [11] -0.1 | [12] 0.029 | [13] -0.122 | [14] -0.045 | [15] -0.009 | [16] 0.091 | [17] 0.075 | [18] -0.003 | [19] 0.062

AKR1C3 (UniProt P42330)
active: [10] 0.87
inactive: [1] 0.05 | [2] 0.093 | [3] 0.044 | [4] 0.188 | [5] 0.222 | [6] 0.061 | [7] 0.424 | [8] -0.081 | [9] 0.007 | [11] -0.028 | [12] 0.066 | [13] -0.074 | [14] -0.087 | [15] -0.176 | [16] 0.031 | [17] -0.214 | [18] -0.065 | [19] 0.061

AKT1 (UniProt P31749)
inactive: [1] -0.163 | [2] -0.25 | [3] 0.111 | [4] 0.317 | [5] -0.062 | [6] 0.038 | [7] -0.24 | [8] -0.003 | [9] -0.025 | [10] -0.001 | [11] 0.001 | [12] 0.059 | [13] -0.134 | [14] -0.07 | [15] 0.1 | [16] 0.025 | [17] -0.224 | [18] 0.135 | [19] 0.216

ALG3 (UniProt Q92685)
inactive: [1] 0.145 | [2] -0.047 | [3] -0.056 | [4] 0.116 | [5] 0.009 | [6] 0.1 | [7] 0.056 | [8] 0.076 | [9] 0.013 | [10] 0.109 | [11] -0.095 | [12] 0.06 | [13] -0.212 | [14] -0.001 | [15] 0.035 | [16] -0.046 | [17] 0 | [18] 0.104 | [19] 0.006

AIFM2 (UniProt Q9BRQ8)
inactive: [1] 0.017 | [2] 0.08 | [3] -0.026 | [4] -0.016 | [5] -0.029 | [6] 0.011 | [7] 0.003 | [8] -0.017 | [9] -0.01 | [10] -0.019 | [11] -0.025 | [12] 0.097 | [13] -0.017 | [14] -0.078 | [15] 0.023 | [16] 0.096 | [17] 0.061 | [18] 0.135 | [19] 0.121

ALG5 (UniProt Q9Y673)
inactive: [1] -0.011 | [2] -0.071 | [3] 0.005 | [4] 0.016 | [5] -0.055 | [6] -0.113 | [7] 0.008 | [8] -0.025 | [9] -0.036 | [10] 0 | [11] -0.054 | [12] 0.039 | [13] -0.139 | [14] 0.675 | [15] 0.095 | [16] 0.023 | [17] 0.013 | [18] 0.046 | [19] 0.075

AKT2 (UniProt P31751)
inactive: [1] -0.012 | [2] -0.068 | [3] 0.01 | [4] 0.042 | [5] -0.009 | [6] -0.058 | [7] -0.102 | [8] 0.015 | [9] 0.013 | [10] 0.008 | [11] -0.056 | [12] -0.01 | [13] -0.121 | [14] -0.041 | [15] 0.008 | [16] -0.012 | [17] -0.231 | [18] 0.04 | [19] 0.044

AHSA1 (UniProt O95433)
inactive: [1] 0.022 | [2] 0.014 | [3] -0.003 | [4] 0 | [5] -0.061 | [6] -0.084 | [7] 0.011 | [8] 0.02 | [9] -0.008 | [10] -0.029 | [11] -0.061 | [12] 0.003 | [13] -0.064 | [14] -0.037 | [15] 0.109 | [16] 0.022 | [17] 0.031 | [18] -0.02 | [19] -0.023

ALDH18A1 (UniProt P54886)
inactive: [1] -0.038 | [2] -0.178 | [3] -0.027 | [4] -0.065 | [5] -0.122 | [6] 0.001 | [7] -0.281 | [8] 0.098 | [9] -0.047 | [10] -0.024 | [11] -0.01 | [12] 0.045 | [13] -0.233 | [14] -0.09 | [15] 0.215 | [16] -0.18 | [17] 0.067 | [19] -0.101
active: [18] -0.652

ALDOC (UniProt J3QKP5)
inactive: [1] -0.314 | [2] 0.228 | [20] 0.16 | [3] 0.003 | [5] 0.293 | [6] 0.391 | [7] -0.262 | [8] -0.353 | [9] 0.17 | [10] -0.498 | [11] 0.257 | [12] -0.127 | [13] 0.05 | [14] 0.282 | [15] 0.098 | [16] 0.011 | [17] 0.059 | [18] -0.505 | [19] 0.211

5 neighbouring records already listed, for reference:
ALG3 (UniProt Q92685)
inactive: [1] 0.145 | [2] -0.047 | [3] -0.056 | [4] 0.116 | [5] 0.009 | [6] 0.1 | [7] 0.056 | [8] 0.076 | [9] 0.013 | [10] 0.109 | [11] -0.095 | [12] 0.06 | [13] -0.212 | [14] -0.001 | [15] 0.035 | [16] -0.046 | [17] 0 | [18] 0.104 | [19] 0.006

AIFM2 (UniProt Q9BRQ8)
inactive: [1] 0.017 | [2] 0.08 | [3] -0.026 | [4] -0.016 | [5] -0.029 | [6] 0.011 | [7] 0.003 | [8] -0.017 | [9] -0.01 | [10] -0.019 | [11] -0.025 | [12] 0.097 | [13] -0.017 | [14] -0.078 | [15] 0.023 | [16] 0.096 | [17] 0.061 | [18] 0.135 | [19] 0.121

ALG5 (UniProt Q9Y673)
inactive: [1] -0.011 | [2] -0.071 | [3] 0.005 | [4] 0.016 | [5] -0.055 | [6] -0.113 | [7] 0.008 | [8] -0.025 | [9] -0.036 | [10] 0 | [11] -0.054 | [12] 0.039 | [13] -0.139 | [14] 0.675 | [15] 0.095 | [16] 0.023 | [17] 0.013 | [18] 0.046 | [19] 0.075

AKT2 (UniProt P31751)
inactive: [1] -0.012 | [2] -0.068 | [3] 0.01 | [4] 0.042 | [5] -0.009 | [6] -0.058 | [7] -0.102 | [8] 0.015 | [9] 0.013 | [10] 0.008 | [11] -0.056 | [12] -0.01 | [13] -0.121 | [14] -0.041 | [15] 0.008 | [16] -0.012 | [17] -0.231 | [18] 0.04 | [19] 0.044

AHSA1 (UniProt O95433)
inactive: [1] 0.022 | [2] 0.014 | [3] -0.003 | [4] 0 | [5] -0.061 | [6] -0.084 | [7] 0.011 | [8] 0.02 | [9] -0.008 | [10] -0.029 | [11] -0.061 | [12] 0.003 | [13] -0.064 | [14] -0.037 | [15] 0.109 | [16] 0.022 | [17] 0.031 | [18] -0.02 | [19] -0.023
